Assay results reported in PubChem BioAssay AID493014 (National Center for Advancing Translational Sciences (NCATS), 2011).
The list shows a part of the results. These are further read-outs of the screen, such as a control signal, another cell line or another target. No call is given for them. Most of these compounds were active or inconclusive in the main read-out, so they are no random draw. Potencies come from curve fits of mixed quality, noted in brackets.

Assay: qHTS Assay to Find Inhibitors of Chronic Active B-Cell Receptor Signaling
Settings: ABC-DLBCL IkBa-CBG/CBR reporter, luminescence ratio (green luciferase fused to IkBa over red control in TMD8 lymphoma cells), 4 h
Procedure, shortened: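 Cell line TMD8 (human ABC DLBCL), stably expressing tet-inducible CBG68-IkBa fusion and CBR; IMDM/0.5% FBS; cpd up to 46 uM; dox induction, 4 h, 37C/5% CO2; dual luminescence; green/red ratio; MG132 control.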

[1] = measured here: CBR red luminescence, cell number
[2] = measured here: IkBa-CBG green luminescence

SMILES	AC50 [1]	AC50 [2]
O=C(/C=C/c1ccccc1Cl)NNC(=O)c1cccs1	10 µM [falling, partial curve]	
O=C1/C(=C/N(C(=O)c2ccco2)c2ccc(Cl)cc2)Sc2ccccc21	14.6 µM [falling, partial curve]	
Nc1cc(CN2C(=O)c3ccccc3C2=O)cc(Cl)c1O	29.1 µM [falling, single point]	
O=C(Cc1ccccc1)NCCCN1CCN(CCCNC(=O)Cc2ccccc2)CC1	23.1 µM [rising, single point]	
CC(C)C(C(=O)NCc1ccco1)N(C(=O)CNS(=O)(=O)c1ccc(Cl)cc1)C1CCCC1 (stereo not drawn)	18.4 µM [falling, partial curve, poor fit]	
Cc1nnc2sc(SCC(=O)Nc3ccc(Cl)cc3)nn2c1=O	35.5 µM [falling, single point]	
N/C(=N\N=C\c1ccc2c(c1)OCO2)c1nonc1N	10.3 µM [falling, partial curve, poor fit]	
O=C1C2CCCCC2C(=O)N1c1ccc(NC2CCCCC2)c([N+](=O)[O-])c1 (stereo not drawn)	14.6 µM [rising, partial curve, poor fit]	
CCOC(=O)[C@H]1[C@H]2COc3ccccc3[C@@H]2N2C(=O)c3cc(Br)ccc3NC(=O)[C@@]12C	32.6 µM [falling, single point]	20.6 µM [rising, partial curve, poor fit]
O=C(NCc1ccco1)/C(=C/c1cccc(C(F)(F)F)c1)c1nc2ccccc2[nH]1		23.1 µM [rising, partial curve, poor fit]
O=C(O)c1cccc(N2CCCC2=O)c1	1.58 µM [rising, full curve, poor fit]	
O=c1c2ccccc2ncn1/N=C/c1ccccc1	10 µM [falling, partial curve]	
O=C(c1ccco1)N1CCN(C(=O)c2cc3cc([N+](=O)[O-])ccc3oc2=O)CC1	14.1 µM [rising, single point]	
NS(=O)(=O)c1ccc(N/N=C/C=C/c2ccccc2[N+](=O)[O-])cc1	3.55 µM [falling, partial curve, poor fit]	
COc1ccc(CC(=O)NNC(=O)c2cccs2)cc1OC	14.1 µM [rising, partial curve, poor fit]	
Cc1ccc(NC(=O)C(C)OC(=O)Cc2c[nH]c3ccccc23)cc1 (stereo not drawn)	23.1 µM [falling, partial curve]	
CCN(CC(=O)Nc1c(F)cccc1F)C(=O)c1ccc(C(F)(F)F)cc1	0.501 µM [falling, full curve, poor fit]	

Two entries picked at random from those above, as already listed:
SMILES	AC50 [1]	AC50 [2]
N/C(=N\N=C\c1ccc2c(c1)OCO2)c1nonc1N	10.3 µM [falling, partial curve, poor fit]	
CCN(CC(=O)Nc1c(F)cccc1F)C(=O)c1ccc(C(F)(F)F)cc1	0.501 µM [falling, full curve, poor fit]	
